In the supplement of paper PMC8728848:
This is one part of the list.

Columns and labels:
Assay in all cases: glycan array binding signal (z-score within array); higher = stronger binding
Conditions in all cases: glycan notation: IUPAC condensed, linker removed
[1] = molecular target: Gal(b1-4)GlcNAc(b1-2)[Gal(b1-4)GlcNAc(b1-4)]Man(a1-3)[GlcNAc(b1-4)][Gal(b1-4)GlcNAc(b1-2)Man(a1-6)]Man(b1-4)GlcNAc(b1-4)GlcNAc
Outline: (§1)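 Columns mapping to the same glycan were averaged after glycan names were converted to IUPAC-condensed notation. The data come from 3228 arrays in the Consortium for Functional Glycomics database, limited to those with an available protein sequence. Binding is reported as a within-array Z-score averaged across arrays of one protein sequence and across linkers.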

[2] = molecular target: Gal(b1-4)GlcNAc(b1-2)[Gal(b1-4)GlcNAc(b1-4)]Man(a1-3)[GlcNAc(b1-4)][Gal(b1-4)GlcNAc(b1-2)[Gal(b1-4)GlcNAc(b1-6)]Man(a1-6)]Man(b1-4)GlcNAc(b1-4)GlcNAc
Outline: as §1

[3] = molecular target: Gal(b1-4)GlcNAc(b1-2)[Gal(b1-4)GlcNAc(b1-4)]Man(a1-3)[GlcNAc(b1-4)][Gal(b1-4)GlcNAc(b1-2)[Gal(b1-4)GlcNAc(b1-6)]Man(a1-6)]Man(b1-4)GlcNAc(b1-4)[Fuc(a1-6)]GlcNAc
Outline: as §1

[4] = molecular target: Gal(b1-4)GlcNAc(b1-2)[Gal(b1-4)GlcNAc(b1-6)]Man(a1-6)[Gal(b1-4)GlcNAc(b1-2)Man(a1-3)]Man(b1-4)GlcNAc(b1-4)GlcNAc
Outline: as §1

[5] = molecular target: Gal(b1-4)GlcNAc(b1-2)[Gal(b1-4)GlcNAc(b1-6)]Man(a1-6)[Gal(b1-4)GlcNAc(b1-2)Man(a1-3)]Man(b1-4)GlcNAc(b1-4)[Fuc(a1-6)]GlcNAc
Outline: as §1

[6] = molecular target: Gal(b1-4)GlcNAc(b1-2)[Gal(b1-4)GlcNAc(b1-6)]Man(a1-6)[GlcNAc(b1-4)][Gal(b1-4)GlcNAc(b1-2)Man(a1-3)]Man(b1-4)GlcNAc(b1-4)GlcNAc
Outline: as §1

[7] = molecular target: Gal(b1-4)GlcNAc(b1-3)Gal(b1-3)GlcNAc
Outline: as §1

[8] = molecular target: Gal(b1-4)GlcNAc(b1-3)Gal(b1-4)Glc
Outline: as §1

[9] = molecular target: Gal(b1-4)GlcNAc(b1-3)Gal(b1-4)GlcNAc
Outline: as §1

[10] = molecular target: Gal(b1-4)GlcNAc(b1-3)Gal(b1-4)GlcNAc(b1-3)Gal(b1-4)GlcNAc
Outline: as §1

[11] = molecular target: Gal(b1-4)GlcNAc(b1-3)Gal(b1-4)[Fuc(a1-3)GlcNAc(b1-6)]Gal(b1-4)Glc
Outline: as §1

[12] = molecular target: Gal(b1-4)GlcNAc(b1-3)Gal(b1-4)[Fuc(a1-3)]GlcNAc(b1-3)Gal(b1-4)[Fuc(a1-3)]GlcNAc
Outline: as §1

[13] = molecular target: Gal(b1-4)GlcNAc(b1-3)GalNAc
Outline: as §1

[14] = molecular target: Gal(b1-4)GlcNAc(b1-3)[Gal(b1-4)GlcNAc(b1-6)]Gal(b1-4)GlcNAc
Outline: as §1

[15] = molecular target: Gal(b1-4)GlcNAc(b1-3)[Gal(b1-4)GlcNAc(b1-6)]GalNAc
Outline: as §1

[16] = molecular target: Gal(b1-4)GlcNAc(b1-3)[GlcNAc(b1-6)]Gal(b1-4)GlcNAc
Outline: as §1

[17] = molecular target: Gal(b1-4)GlcNAc(b1-6)Gal(b1-4)GlcNAc
Outline: as §1

[18] = molecular target: Gal(b1-4)GlcNAc(b1-6)GalNAc
Outline: as §1

[19] = molecular target: Gal(b1-4)GlcNAc(b1-6)[Gal(b1-3)]GalNAc
Outline: as §1

[20] = molecular target: Gal(b1-4)GlcNAc6P
Outline: as §1

[21] = molecular target: Gal(b1-6)Gal
Outline: as §1

[22] = molecular target: Gal3S(b1-3)GalNAc
Outline: as §1

[23] = molecular target: Gal3S(b1-3)GlcNAc
Outline: as §1

[24] = molecular target: Gal3S(b1-3)[Fuc(a1-4)]GlcNAc
Outline: as §1

[25] = molecular target: Gal3S(b1-4)Glc
Outline: as §1

[26] = molecular target: Gal3S(b1-4)Glc6S
Outline: as §1

[27] = molecular target: Gal3S(b1-4)GlcNAc
Outline: as §1

[28] = molecular target: Gal3S(b1-4)GlcNAc6S
Outline: as §1

[29] = molecular target: Gal3S(b1-4)[Fuc(a1-3)]Glc
Outline: as §1

[30] = molecular target: Gal3S(b1-4)[Fuc(a1-3)]Glc6S
Outline: as §1

[31] = molecular target: Gal3S4S(b1-4)GlcNAc
Outline: as §1

[32] = molecular target: Gal3S6S(b1-4)GlcNAc
Outline: as §1

[33] = molecular target: Gal3S6S(b1-4)GlcNAc6S
Outline: as §1

[34] = molecular target: Gal4S(b1-4)GlcNAc
Outline: as §1

[35] = molecular target: Gal4S6S(b1-4)GlcNAc
Outline: as §1

[36] = molecular target: Gal6P(b1-4)GlcNAc
Outline: as §1

[37] = molecular target: Gal6S(b1-3)GlcNAc
Outline: as §1

B1: CALR truncated at D342 (Homo sapiens) (protein)
chain: EPAVYFKEQFLDGDGWTSRWIESKHKSDFGKFVLSSGKFYGDEEKDKGLQTSQDARFYALSASFEPFSNKGQTLVVQFTVKHEQNIDCGGGYVKLFPNSLDQTDMHGDSEYNIMFGPDICGPGTKKVHVIFNYKGKNVLINKDIRCKDDEFTHLYTLIVRPDNTYEVKIDNSQVESGSLEDDWDFLPPKKIKDPDASKPEDWDERAKIDDPTDSKPEDWDKPEHIPDPDAKKPEDWDEEMDGEWEPPVIQNPEYKGEWKPRQIDNPDYKGTWIHPEIDNPEYSPDPSIYAYDNFGVLGLDLWQVKSGTIFDNFLITNDEAYAEEFGNETWGVTKAAEKQMKD
glycan array binding signal (z-score) [1]: -0.109 | glycan array binding signal (z-score) [2]: -0.663 | glycan array binding signal (z-score) [3]: -0.864 | glycan array binding signal (z-score) [4]: 1.06 | glycan array binding signal (z-score) [5]: 0.25 | glycan array binding signal (z-score) [6]: -1.22 | glycan array binding signal (z-score) [7]: 0.662 | glycan array binding signal (z-score) [8]: -0.962 | glycan array binding signal (z-score) [9]: -0.977 | glycan array binding signal (z-score) [10]: 0.74 | glycan array binding signal (z-score) [11]: -2.41 | glycan array binding signal (z-score) [12]: -0.365 | glycan array binding signal (z-score) [13]: 0.267 | glycan array binding signal (z-score) [14]: -0.614 | glycan array binding signal (z-score) [15]: -0.3 | glycan array binding signal (z-score) [16]: 1.39 | glycan array binding signal (z-score) [17]: -0.473 | glycan array binding signal (z-score) [18]: 0.227 | glycan array binding signal (z-score) [19]: -0.038 | glycan array binding signal (z-score) [20]: 0.225 | glycan array binding signal (z-score) [21]: 0.132 | glycan array binding signal (z-score) [22]: 0.274 | glycan array binding signal (z-score) [23]: -0.799 | glycan array binding signal (z-score) [24]: -0.389 | glycan array binding signal (z-score) [25]: -0.903 | glycan array binding signal (z-score) [26]: 0.638 | glycan array binding signal (z-score) [27]: 0.011 | glycan array binding signal (z-score) [28]: -0.314 | glycan array binding signal (z-score) [29]: 1.59 | glycan array binding signal (z-score) [30]: -0.427 | glycan array binding signal (z-score) [31]: 0.455 | glycan array binding signal (z-score) [32]: 0.029 | glycan array binding signal (z-score) [33]: -1.08 | glycan array binding signal (z-score) [34]: 0.032 | glycan array binding signal (z-score) [35]: -0.41 | glycan array binding signal (z-score) [36]: 1.27 | glycan array binding signal (z-score) [37]: 0.294
